# According to PubChem BioAssay AID488837 (National Center for Advancing Translational Sciences (NCATS), 2010):
# Amino acid sequences for entries named in this document (tags omitted). A change or cut given only in a name is not applied to a line headed by its entry.
# UniProt O00167: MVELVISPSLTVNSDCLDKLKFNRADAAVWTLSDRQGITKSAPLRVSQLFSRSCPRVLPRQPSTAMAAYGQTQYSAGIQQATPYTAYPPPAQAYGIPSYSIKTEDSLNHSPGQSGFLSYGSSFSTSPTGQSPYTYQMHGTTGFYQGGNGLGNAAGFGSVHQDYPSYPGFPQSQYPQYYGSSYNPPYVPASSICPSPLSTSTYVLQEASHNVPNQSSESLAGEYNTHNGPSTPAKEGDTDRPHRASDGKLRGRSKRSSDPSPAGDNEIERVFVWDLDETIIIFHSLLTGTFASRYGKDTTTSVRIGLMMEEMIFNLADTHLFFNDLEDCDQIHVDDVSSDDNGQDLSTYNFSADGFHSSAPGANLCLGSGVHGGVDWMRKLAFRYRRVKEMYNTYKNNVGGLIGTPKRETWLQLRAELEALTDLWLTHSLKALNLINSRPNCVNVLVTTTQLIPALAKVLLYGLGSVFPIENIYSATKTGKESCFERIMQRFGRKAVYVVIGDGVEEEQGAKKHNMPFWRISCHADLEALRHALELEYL
# The whole screen tested about 330,000 compounds, of which about 20 (0.006%) were called active. Inconclusive results, whose numbers are uncertain, are shown with a selection of clear calls. The call rests on the fitted dose curve; in most records, active means well fitted inhibition curve with a large enough effect; inconclusive means small, poorly fitted or top-dose-only effect, or effect the other way; inactive means flat fitted curve, though single readings scatter. A potency beside an inconclusive call is a rough fit, not a confirmed value.
# Target: Protein phosphatase EYA2 (Homo sapiens) (UniProt O00167)
# Test: qHTS Assay for Inhibitors of the Phosphatase Activity of Eya2
# Settings: recombinant Eya2, OMFP fluorescence dephosphorylation (OMFP is methylfluorescein phosphate)
# How it was run: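 Eya2 protein (added as 0.2 uM solution) was preincubated with compound for 10 min at ambient temperature in 50 mM HEPES pH 7.5, 50 mM NaCl, 5 uM MgCl2, 0.05% BSA, 1 mM DTT. OMFP (added at 50 uM) then reacted 10 min; fluorescence read at 485/525 nm.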
# Potency means the concentration at half of the fitted maximal effect.
row,SMILES,Potency
1,C=CCN1C2=NCCCN2c2ccccc21,"inconclusive: 22.4 µM [inhibitor, single point]"
2,Cc1ccccc1N/N=C/c1ccc(N2CCOCC2)cc1,"inconclusive: 398 µM [inhibitor, single point]"
3,CCCNC(=O)c1ccc(N2CCC3(CC2)CC(c2ccccc2)=NO3)c(NC(=O)c2ccccc2)c1,"inconclusive: 22.4 µM [inhibitor, single point]"
4,COc1ccc(-c2[nH]ncc2CNCCCSC)cc1F,"inconclusive: 100 µM [inhibitor, single point]"
5,O=C(c1ccc(Cl)cc1)N(Cc1ccc(Br)cc1)N1C(=O)CCC1=O,"inconclusive: 22.4 µM [inhibitor, single point]"
6,CCc1ccc(NC(=O)c2cnc3scc(C)n3c2=O)cc1,"inconclusive: 15.8 µM [inhibitor, single point]"
7,CCCCSc1nnc2c(n1)OC=Nc1ccccc1-2,"inconclusive: 22.4 µM [inhibitor, single point]"
8,Cc1occc1C(=O)N/N=C/c1ccc(OCc2ccccc2)cc1,"inconclusive: 70.8 µM [inhibitor, partial curve, poor fit]"
9,COC(=O)c1cc2c(ccn2-c2ccc(F)cc2)n1Cc1ccc(C#N)cc1,inactive
10,COc1cc(/C=C2\SC(=Nc3ccc(Cl)c(C(=O)O)c3)NC2=O)c(Br)c(Br)c1O,"inconclusive: 12.6 µM [activator, partial curve]"
11,CCOC(=O)/C=C/C(=O)OCC(=O)Nc1ccc([N+](=O)[O-])cc1,inactive
12,COc1ccc(/C(O)=C/c2nc3ccccc3n(-c3ccccc3)c2=O)cc1,inactive
13,COc1ccc(-c2cn3c(C)c(C(=O)NCCN4CCOCC4)sc3n2)cc1,"inconclusive: 89.1 µM [inhibitor, single point]"
14,O=C(NCc1ccc(Cl)cc1)c1n[nH]c([N+](=O)[O-])c1Cl,"inconclusive: 158 µM [activator, partial curve]"
15,NC(=O)CC[C@H](NC(=O)[C@H](Cc1ccccc1)n1c(=O)[nH]c2ccccc2c1=O)C(=O)N1CCC[C@H]1C(=O)O,"inconclusive: 22.4 µM [inhibitor, single point]"
16,Oc1ccc(CCc2n[nH]c(=S)n2-c2ccc(F)cc2)cc1,"inconclusive: 100 µM [inhibitor, single point]"
17,O=C(O)c1ccc(-n2cc(C(=O)c3ccccc3O)cn2)cc1,inactive
18,COc1cc2c(cc1OC)CN(C(=O)c1sc(-c3cnccn3)nc1C)CC2,"inconclusive: 100 µM [inhibitor, single point]"
19,O=C(Nc1cccc(NC(=O)c2cccs2)c1)c1ccc2c(c1)OCCO2,"inconclusive: 100 µM [inhibitor, single point]"
20,COC(=O)CC1C(=O)NCCN1C(=O)CSc1nc2ccc([N+](=O)[O-])cc2s1 (centres undefined),"inconclusive: 89.1 µM [inhibitor, single point]"
21,Cc1cc(C)cc(Oc2ccc(N)cc2)c1,"inconclusive: 141 µM [inhibitor, partial curve]"
22,Cc1cc(C)c(S(=O)(=O)N2CCCCC2CCNC(=O)C(=O)NCCN2CCOCC2)c(C)c1 (centres undefined),"inconclusive: 15.8 µM [inhibitor, partial curve, poor fit]"
23,CN(C(=O)c1ccncc1)c1ccccc1,"inconclusive: 100 µM [inhibitor, single point]"

row,SMILES,Potency
1,Cc1cc(Cl)ccc1C(=O)C1CCCN(C(=O)c2cscn2)C1 (centres undefined),inactive
2,Cc1cccc(NC(=O)CN(C2=NC3CS(=O)(=O)CC3S2)c2ccccc2F)c1 (centres undefined),"inconclusive: 22.4 µM [inhibitor, single point]"
3,CC(C)Cn1c(C(C)C)nc([N+](=O)[O-])c1S(=O)(=O)c1ccc(F)cc1,inactive
4,CCNS(=O)(=O)c1ccc(CCC(=O)N2CCN(c3ccc(OC)cc3)CC2)cc1,"inconclusive: 89.1 µM [inhibitor, partial curve]"
5,COC(=O)[C@@]12CCCCN1[C@H](c1ccc(-c3ccc(F)cc3)c(OC)c1)[C@H]1C(=O)N(C)C(=O)[C@H]12,inactive
6,C#CCOCCOCCOCCNc1nc(N2CCN(C(=O)[C@H]([C@@H](C)CC)n3cc([C@@H](N)CC(C)C)nn3)CC2)nc(N2CCN(C(=O)[C@H](Cc3ccc(O)cc3)n3cc([C@@H](N)CC(C)C)nn3)CC2)n1,"inconclusive: 20 µM [inhibitor, single point]"
7,O=C(NCC(=O)N(c1ccccc1F)C(C(=O)NC1CCCC1)c1ccncc1)c1ccco1 (centres undefined),"inconclusive: 14.1 µM [inhibitor, single point]"
8,Cc1cc(NC(=O)CSc2nc3ccccc3n2CC(=O)N2CC(C)CC(C)C2)no1 (centres undefined),inactive
9,N#Cc1cc(C(=O)c2ccccc2O)cn(-c2nccs2)c1=O,"inconclusive: 63.1 µM [activator, partial curve]"
10,C=CCN(CC=C)C(=O)C(=O)c1cc(C)n(-c2ccc([N+](=O)[O-])cc2)c1C,"inconclusive: 31.6 µM [inhibitor, single point]"
11,COc1ccc(C2SCC(=O)N2c2ccc(C)cc2)cc1 (centres undefined),"inconclusive: 79.4 µM [inhibitor, partial curve]"
12,CCOC(=O)C1=C(C)NC(C)=C(C(=O)OCC)C1c1cccc(C)n1,"inconclusive: 100 µM [inhibitor, single point]"
13,CCC(C)(C)NC(=O)CN(C(=O)c1snc(C(N)=O)c1N)c1ccc2c(c1)OCCO2,inactive
14,Cc1ccnc2c1ccc1c(C)ccnc12,"inconclusive: 251 µM [inhibitor, partial curve, poor fit]"
15,COC(=O)CNC(=O)/C=C/c1ccc(OC)cc1,"inconclusive: 31.6 µM [inhibitor, single point]"
16,Cc1ccc(C(=O)O)cc1NC(=O)c1cccs1,inactive
17,CNC(=S)NCCCc1ccccc1,"inconclusive: 89.1 µM [inhibitor, single point]"
18,CC(C)C[C@H](NC(=O)c1nc[nH]c1C(=O)NCC(=O)OC(C)(C)C)C(=O)OC(C)(C)C,"inconclusive: 100 µM [inhibitor, single point]"
19,COc1cccc(/C=C/C(=O)NNC(=O)c2ccco2)c1OC,inactive
20,CCc1ccc(N(CC(=O)NC(C)C)C(=O)CCC(=O)Nc2ccccn2)cc1,"inconclusive: 31.6 µM [inhibitor, partial curve, poor fit]"
21,COc1ccc(NC(=O)COC(=O)c2c(-c3ccccc3)noc2C)cc1,"inconclusive: 22.4 µM [inhibitor, single point]"
22,O=C(NC1CCCCC1)c1ccc(CS(=O)Cc2ccccc2Cl)o1 (centres undefined),"inconclusive: 39.8 µM [inhibitor, partial curve]"
23,CC(=O)c1cccc(NS(=O)(=O)c2cc(-c3cnc(C4CC4)o3)ccc2C)c1,"inconclusive: 100 µM [inhibitor, single point]"

# 2 entries drawn at random from the list so far, as already listed:
row,SMILES,Potency
20,CCc1ccc(N(CC(=O)NC(C)C)C(=O)CCC(=O)Nc2ccccn2)cc1,"inconclusive: 31.6 µM [inhibitor, partial curve, poor fit]"
14,Cc1ccnc2c1ccc1c(C)ccnc12,"inconclusive: 251 µM [inhibitor, partial curve, poor fit]"

# Next part.

row,SMILES,Potency
1,Fc1ccc(F)c(CNc2ncnc3cc(Cl)ccc23)c1,inactive
2,CCOC(=O)CNc1ccc2c(c1)OCO2,inactive
3,NC(=O)COc1ccc2cc(-c3ccc(F)cc3)c(=O)oc2c1,inactive
4,COc1cc(N)c(C(=O)c2nccc3cc(OC)c(OC)cc23)cc1OC,inactive
5,Cc1ccc2nc(/C(C#N)=C\c3ccc(N4CCOCC4)o3)[nH]c2c1,"inconclusive: 12.6 µM [activator, partial curve]"
6,COc1ccc([N+](=O)[O-])cc1NC(=O)C(C)OC(=O)C1CC(=O)N(Cc2ccco2)C1 (centres undefined),inactive
7,CC1(C)CC(c2nc(-c3ccc(Cl)cc3)cs2)CCS1 (centres undefined),"inconclusive: 100 µM [inhibitor, single point]"
8,COc1ccc(CN(Cc2cccn2C)C(=O)c2cc3cc(OC)ccc3[nH]2)cc1,"inconclusive: 178 µM [inhibitor, single point]"
9,CCC(=O)N1CCc2cc(S(=O)(=O)CCC(=O)NC3CCCCC3)ccc21,inactive
10,Cc1cc(C)c2c(N)c(C(=O)c3ccccc3)sc2n1,"inconclusive: 100 µM [inhibitor, single point]"
11,O=C(Oc1cccc(Cl)c1)N1CCOCC1,"inconclusive: 20 µM [inhibitor, single point]"
12,CSc1nc2cc(S(=O)(=O)N3CCCCC3)ccc2s1,"inconclusive: 79.4 µM [inhibitor, partial curve]"
13,Nc1c(N2CCCC2)cc(Cl)c2nonc12,inactive
14,CCCC(=O)Nc1cccc(NC(=O)c2ccc3c(c2)OCCO3)c1,"inconclusive: 12.6 µM [inhibitor, partial curve]"
15,O=C(OCc1ccc(F)cc1)c1cc2ccccc2cc1O,"inconclusive: 89.1 µM [inhibitor, single point]"
16,Oc1ccc(-c2csc(Nc3ccccn3)n2)cc1O,inactive
17,Cc1ccc(-n2nc3c(=O)n(C(C)C(=O)NCc4ccco4)nc(C)c3c2C)cc1 (centres undefined),inactive
18,CCOC(=O)C1=C(C)OC(N)=C(C#N)C1c1cc2ccccc2nc1N1CCCCC1 (centres undefined),"inconclusive: 20 µM [inhibitor, single point]"
19,COc1ccc(/C=N/NC(=O)c2nc(Cl)c(Cl)c(N)c2Cl)cc1COc1ccc(F)cc1F,inactive
20,CC(=O)NC1CCCc2c1cnn2-c1ccc(C(C)(C)C)cc1 (centres undefined),"inconclusive: 25.1 µM [inhibitor, single point]"
21,CCCn1c(C)nc2c(c1=O)c1nc3ccccc3nc1n2CCC1=CCCCC1,inactive
22,COc1ccc(S(=O)(=O)N2CCN(C(=O)NCc3ccc(C)cc3)CC2)cc1,inactive
23,C(=N\Nc1ccc2nncn2n1)/c1ccccn1,"inconclusive: 100 µM [inhibitor, single point]"

# No new results follow: 20 of the compounds above.
row,SMILES,Potency
4,COc1cc(N)c(C(=O)c2nccc3cc(OC)c(OC)cc23)cc1OC,inactive
5,Cc1ccc2nc(/C(C#N)=C\c3ccc(N4CCOCC4)o3)[nH]c2c1,"inconclusive: 12.6 µM [activator, partial curve]"
6,COc1ccc([N+](=O)[O-])cc1NC(=O)C(C)OC(=O)C1CC(=O)N(Cc2ccco2)C1 (centres undefined),inactive
7,CC1(C)CC(c2nc(-c3ccc(Cl)cc3)cs2)CCS1 (centres undefined),"inconclusive: 100 µM [inhibitor, single point]"
8,COc1ccc(CN(Cc2cccn2C)C(=O)c2cc3cc(OC)ccc3[nH]2)cc1,"inconclusive: 178 µM [inhibitor, single point]"
9,CCC(=O)N1CCc2cc(S(=O)(=O)CCC(=O)NC3CCCCC3)ccc21,inactive
10,Cc1cc(C)c2c(N)c(C(=O)c3ccccc3)sc2n1,"inconclusive: 100 µM [inhibitor, single point]"
11,O=C(Oc1cccc(Cl)c1)N1CCOCC1,"inconclusive: 20 µM [inhibitor, single point]"
12,CSc1nc2cc(S(=O)(=O)N3CCCCC3)ccc2s1,"inconclusive: 79.4 µM [inhibitor, partial curve]"
13,Nc1c(N2CCCC2)cc(Cl)c2nonc12,inactive
14,CCCC(=O)Nc1cccc(NC(=O)c2ccc3c(c2)OCCO3)c1,"inconclusive: 12.6 µM [inhibitor, partial curve]"
15,O=C(OCc1ccc(F)cc1)c1cc2ccccc2cc1O,"inconclusive: 89.1 µM [inhibitor, single point]"
16,Oc1ccc(-c2csc(Nc3ccccn3)n2)cc1O,inactive
17,Cc1ccc(-n2nc3c(=O)n(C(C)C(=O)NCc4ccco4)nc(C)c3c2C)cc1 (centres undefined),inactive
18,CCOC(=O)C1=C(C)OC(N)=C(C#N)C1c1cc2ccccc2nc1N1CCCCC1 (centres undefined),"inconclusive: 20 µM [inhibitor, single point]"
19,COc1ccc(/C=N/NC(=O)c2nc(Cl)c(Cl)c(N)c2Cl)cc1COc1ccc(F)cc1F,inactive
20,CC(=O)NC1CCCc2c1cnn2-c1ccc(C(C)(C)C)cc1 (centres undefined),"inconclusive: 25.1 µM [inhibitor, single point]"
21,CCCn1c(C)nc2c(c1=O)c1nc3ccccc3nc1n2CCC1=CCCCC1,inactive
22,COc1ccc(S(=O)(=O)N2CCN(C(=O)NCc3ccc(C)cc3)CC2)cc1,inactive
23,C(=N\Nc1ccc2nncn2n1)/c1ccccn1,"inconclusive: 100 µM [inhibitor, single point]"
